Source: publication PMC11763764
No constants are given. Whether binding was seen depends on the method and setting. In cells and extracts the contact can be indirect. Some binding calls cover weakened binding; strength is not graded here.

Amino acid sequences for entries named in this document (tags omitted). Residues count along the entry.
UniProt Q92673, residues 82-2214: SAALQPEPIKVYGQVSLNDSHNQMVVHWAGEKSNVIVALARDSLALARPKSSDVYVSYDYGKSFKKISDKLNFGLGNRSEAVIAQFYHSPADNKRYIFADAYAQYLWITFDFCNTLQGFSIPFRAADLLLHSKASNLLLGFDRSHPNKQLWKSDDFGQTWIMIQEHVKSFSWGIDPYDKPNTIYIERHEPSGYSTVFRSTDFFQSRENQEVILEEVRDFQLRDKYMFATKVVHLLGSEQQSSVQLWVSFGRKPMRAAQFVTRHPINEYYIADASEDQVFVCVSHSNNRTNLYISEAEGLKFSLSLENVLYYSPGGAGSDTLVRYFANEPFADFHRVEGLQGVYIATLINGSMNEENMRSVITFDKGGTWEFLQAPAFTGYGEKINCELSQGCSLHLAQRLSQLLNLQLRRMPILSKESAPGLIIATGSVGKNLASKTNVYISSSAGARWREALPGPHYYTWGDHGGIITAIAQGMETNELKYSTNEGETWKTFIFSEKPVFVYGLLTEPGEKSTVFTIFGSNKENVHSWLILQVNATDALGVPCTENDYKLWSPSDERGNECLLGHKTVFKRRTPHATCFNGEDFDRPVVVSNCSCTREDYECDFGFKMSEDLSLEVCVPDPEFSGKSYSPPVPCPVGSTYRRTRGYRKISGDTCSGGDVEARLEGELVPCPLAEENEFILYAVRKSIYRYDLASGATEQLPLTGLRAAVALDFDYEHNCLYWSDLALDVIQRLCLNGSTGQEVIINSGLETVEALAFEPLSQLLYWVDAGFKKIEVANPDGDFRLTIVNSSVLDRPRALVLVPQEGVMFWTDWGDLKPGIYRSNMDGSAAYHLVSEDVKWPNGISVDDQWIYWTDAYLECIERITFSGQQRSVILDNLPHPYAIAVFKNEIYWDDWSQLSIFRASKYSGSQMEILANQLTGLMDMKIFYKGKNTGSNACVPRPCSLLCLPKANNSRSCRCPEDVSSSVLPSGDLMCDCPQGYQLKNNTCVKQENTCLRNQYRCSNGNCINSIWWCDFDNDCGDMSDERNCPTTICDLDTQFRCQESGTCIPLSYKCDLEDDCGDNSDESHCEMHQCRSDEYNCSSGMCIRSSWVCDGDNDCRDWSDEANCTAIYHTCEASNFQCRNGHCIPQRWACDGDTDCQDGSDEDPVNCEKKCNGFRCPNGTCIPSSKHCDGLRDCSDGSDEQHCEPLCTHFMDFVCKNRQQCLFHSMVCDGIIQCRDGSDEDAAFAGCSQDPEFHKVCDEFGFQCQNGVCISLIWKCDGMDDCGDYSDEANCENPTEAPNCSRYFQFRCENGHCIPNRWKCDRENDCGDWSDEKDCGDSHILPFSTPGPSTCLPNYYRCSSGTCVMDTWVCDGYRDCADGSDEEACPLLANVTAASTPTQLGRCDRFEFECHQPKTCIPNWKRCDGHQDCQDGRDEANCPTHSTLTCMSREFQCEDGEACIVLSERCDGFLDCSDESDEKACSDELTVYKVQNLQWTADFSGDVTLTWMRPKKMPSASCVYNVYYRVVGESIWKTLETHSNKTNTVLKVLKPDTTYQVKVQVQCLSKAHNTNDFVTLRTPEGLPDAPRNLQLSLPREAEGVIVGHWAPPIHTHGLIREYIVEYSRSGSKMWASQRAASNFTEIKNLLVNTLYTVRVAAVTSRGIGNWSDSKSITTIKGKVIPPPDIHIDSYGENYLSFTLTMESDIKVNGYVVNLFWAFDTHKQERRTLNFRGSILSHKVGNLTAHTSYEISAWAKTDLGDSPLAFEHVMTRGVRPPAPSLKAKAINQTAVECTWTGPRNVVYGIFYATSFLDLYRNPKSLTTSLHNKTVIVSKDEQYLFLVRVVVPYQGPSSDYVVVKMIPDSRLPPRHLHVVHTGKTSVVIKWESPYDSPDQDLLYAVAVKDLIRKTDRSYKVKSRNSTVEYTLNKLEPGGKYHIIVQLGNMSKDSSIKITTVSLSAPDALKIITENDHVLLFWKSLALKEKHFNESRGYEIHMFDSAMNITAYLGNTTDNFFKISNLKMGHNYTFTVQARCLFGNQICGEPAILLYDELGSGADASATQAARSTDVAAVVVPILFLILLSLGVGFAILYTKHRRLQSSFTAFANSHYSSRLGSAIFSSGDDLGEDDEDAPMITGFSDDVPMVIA
UniProt P22455, residues 22-802: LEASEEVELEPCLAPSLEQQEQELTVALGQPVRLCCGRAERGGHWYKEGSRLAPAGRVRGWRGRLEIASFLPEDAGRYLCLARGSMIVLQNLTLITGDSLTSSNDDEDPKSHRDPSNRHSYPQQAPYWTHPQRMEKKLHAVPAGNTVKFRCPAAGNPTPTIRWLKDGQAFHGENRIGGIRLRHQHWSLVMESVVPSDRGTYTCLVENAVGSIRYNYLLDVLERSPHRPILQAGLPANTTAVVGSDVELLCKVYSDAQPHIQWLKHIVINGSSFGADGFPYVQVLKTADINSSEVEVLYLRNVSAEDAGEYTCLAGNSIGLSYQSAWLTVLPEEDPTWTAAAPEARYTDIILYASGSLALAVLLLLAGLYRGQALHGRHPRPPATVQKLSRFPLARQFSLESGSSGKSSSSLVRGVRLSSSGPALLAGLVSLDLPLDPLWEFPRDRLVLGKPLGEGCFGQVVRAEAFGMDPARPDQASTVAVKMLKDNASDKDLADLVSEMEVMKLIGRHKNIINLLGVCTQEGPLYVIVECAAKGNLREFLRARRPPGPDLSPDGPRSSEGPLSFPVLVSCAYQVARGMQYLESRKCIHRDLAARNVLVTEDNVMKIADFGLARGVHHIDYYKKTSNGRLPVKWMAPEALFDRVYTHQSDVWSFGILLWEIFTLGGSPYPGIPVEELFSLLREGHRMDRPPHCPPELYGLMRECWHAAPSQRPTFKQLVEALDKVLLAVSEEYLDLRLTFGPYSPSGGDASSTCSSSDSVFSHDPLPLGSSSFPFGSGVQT

Key:
[1] = biological target: sortilin-related receptor 1 (SORL1) (human (endogenous in KRCH31)) (UniProt Q92673); assay: proximity ligation; Duolink In Situ Red on fixed cells (4% paraformaldehyde); mouse anti-SORL1 with rabbit anti-EGFR or rabbit anti-FGFR4; confocal microscopy
[2] = biological target: sortilin-related receptor 1 (SORL1) (human (endogenous in KRCH31)) (UniProt Q92673); assay: co-IP; KRCH31 protein lysate (500 uL, 1 ug/uL) on antibody-loaded Protein G magnetic beads, 1 h at room temperature, washed with PBST, Western blot of the IP products

Substance | binding [1] | binding [2]
epidermal growth factor receptor (EGFR) (from UniProt P00533 25-1210) | binds | binds
fibroblast growth factor receptor 4 (FGFR4) (from UniProt P22455 22-802) | binds | binds
